This is one part of the list.

Amino acid sequences for entries named in this document (tags omitted).
UniProt Q0JBA9, entry or part of it: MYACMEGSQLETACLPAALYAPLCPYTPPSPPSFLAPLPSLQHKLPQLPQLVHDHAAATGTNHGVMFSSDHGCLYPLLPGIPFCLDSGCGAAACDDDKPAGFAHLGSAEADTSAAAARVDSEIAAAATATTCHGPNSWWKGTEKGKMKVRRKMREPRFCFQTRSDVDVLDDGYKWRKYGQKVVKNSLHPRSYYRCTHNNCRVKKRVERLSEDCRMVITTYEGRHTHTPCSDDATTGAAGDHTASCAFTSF

The target of this test is OsWRKY34 (Oryza sativa, UniProt Q0JBA9 1-250). The test is described as follows: protein-binding microarray (RPBM); PBS, 2% BSA, 51.3 ng/ul salmon testes DNA, 50 uM zinc acetate, 200 nM TF, 25 C, 1 h; high values mean tight binding. The conditions noted are these: protein: recombinant; tags: N-terminal polyhistidine and DsRed monomer fusion (pET32a); label: CyDye5-dUTP incorporated in the synthesized complementary strand; 3' TTTTT single-stranded linker to array surface; dsDNA, one strand shown. An outline of the steps: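 The binding signal for each feature is its fluorescence intensity in arbitrary units. An Axon 4000B scanner was used to read a custom Agilent array that had been made double-stranded with Cy5-dUTP primer extension, blocked with 2% BSA, incubated at 25 °C for 1 h with 200 nM protein in PBS, 2% BSA, salmon testes DNA and 50 µM zinc acetate, and washed. The protein was an N-terminal polyhistidine–DsRed transcription factor fusion from E. coli BL21-CodonPlus, purified on Ni–NTA.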
With “AACAGGGGACGCGGATTATCATCTTTTCTATTTCCTATTTCGGAGTCACCTAGTGCAG”, the binding signal was 9690 fluorescence intensity (a.u.). In the case of “GCAGTACAGTACATATAATTTACTCTATACTCTCTCCGTACGGAGTCACCTAGTGCAG”, the binding signal was 9840 fluorescence intensity (a.u.). For the sequence “CCCGATGACCACCCTACGCTAGCAATCTTCCTCTTGTCGTCGGAGTCACCTAGTGCAG”, the binding signal was 8460 fluorescence intensity (a.u.). For the sequence “TCGCCCAGCGTACTGCCACCTTTTGTCTACTGCGCCTACCCGGAGTCACCTAGTGCAG”, the binding signal is 9330 fluorescence intensity (a.u.). The result for “AATTCCAGACAAGAGCCATCAAAGCATATACTCTCTCTCTCGGAGTCACCTAGTGCAG” reads 8390 fluorescence intensity (a.u.); that for “CGGGCAGGTTGTCGCCGTCATCGTGTGGTGCGATTGCAATCGGAGTCACCTAGTGCAG”, 8150 fluorescence intensity (a.u.). For “TCAGTGTGTGTGTGTCGTGCTGCTGCATGTGTGCGTACGTCGGAGTCACCTAGTGCAG” the value was 11000 fluorescence intensity (a.u.); for “CCGGTATTGATGTGTTCCCCAAGCCAAAAAAAAAAAGAAGCGGAGTCACCTAGTGCAG”, 64800 fluorescence intensity (a.u.).

Take “ACCTCTCGTTCTCCTGGCCGTCGTCGGTGGTGGCCGGCGGCGGAGTCACCTAGTGCAG”: the binding signal is 8620 fluorescence intensity (a.u.).

For “AAGTCACACATAAAGTACTGTTCATATTTCATCATCTAATCGGAGTCACCTAGTGCAG”, the binding signal is 9530 fluorescence intensity (a.u.).

For “TAGCTGGTGACGGAAGATATTTCCTACTTTATATCTCTTTCGGAGTCACCTAGTGCAG”, the binding signal was 9000 fluorescence intensity (a.u.). For the sequence “AATTGGGGTTGTTCGGTAGCTAAGTGTACCTTGATTACAACGGAGTCACCTAGTGCAG”, the binding signal was 10000 fluorescence intensity (a.u.). For the sequence “TGTTTAAACTGTTGTTATGGTTAGTTCGGTCTATAACCGACGGAGTCACCTAGTGCAG”, the binding signal is 9100 fluorescence intensity (a.u.). In the case of “TTCCATGACACATCCTCCTGATCTTGGCATATTTGCCCTCCGGAGTCACCTAGTGCAG”, the binding signal was 9300 fluorescence intensity (a.u.). In the case of “ATATCTCGCGTCGTCGCTCGCCGCTCGCCATAGCATCTCCCGGAGTCACCTAGTGCAG”, the binding signal was 11800 fluorescence intensity (a.u.). Consider “ACATGAGCCCAAACCGTCCCATTTCCTATTATTGCCACTCCGGAGTCACCTAGTGCAG”, for which the binding signal was 10100 fluorescence intensity (a.u.).

As to “GGGAGGCTTTGTTCTAGCTTGTACACCAGAGATTCAGAAACGGAGTCACCTAGTGCAG”, the binding signal is 9840 fluorescence intensity (a.u.). For “GTCACATTCGCCGCCCTCTGGGAGGGCGATTTTTAAAAATCGGAGTCACCTAGTGCAG” the value was 9320 fluorescence intensity (a.u.); for “CTATCTTGATGTTCATTGACCATGTTCCTCCAAACCCCTACGGAGTCACCTAGTGCAG”, 9150 fluorescence intensity (a.u.); for “CGCACTGACCCGTACAGCACTCAACTCTCTCTCTAACCTTCGGAGTCACCTAGTGCAG”, 8330 fluorescence intensity (a.u.). The result for “AACCAAGGTGACCACCATTTTCTTTTTTTTTTCTTTTTGCCGGAGTCACCTAGTGCAG” reads 9420 fluorescence intensity (a.u.); that for “AGATAGTTTCTCCACTAGTGTTAGTTATCTTGGTTAGATACGGAGTCACCTAGTGCAG”, 9130 fluorescence intensity (a.u.); that for “CATGACTTTATATAATTTTTTTATTCGCGACATCTGAATCCGGAGTCACCTAGTGCAG”, 9030 fluorescence intensity (a.u.). For “GCCGTTCCTCGCCTGCATCTCGTTCCCCGGCGCCATTACTCGGAGTCACCTAGTGCAG” the value was 9250 fluorescence intensity (a.u.). Regarding “GTCGGTGTATCTAGTACCACGTTCTTGCTACTAATTACCACGGAGTCACCTAGTGCAG”, the binding signal was 8040 fluorescence intensity (a.u.).

With “CTTTTTTTTGTGGAGGGAGATGGAGTGGGGAGGGCACTTGCGGAGTCACCTAGTGCAG”, the binding signal was 12300 fluorescence intensity (a.u.). “TTGTGTAGGTTTTGTTTCTTTCTTCTTTTTTCGAAAAGAGCGGAGTCACCTAGTGCAG”: the binding signal was 8940 fluorescence intensity (a.u.). For “GGGAAACAGCTCCGCGCCCGCGCGCCAAACTTGCTCCAAACGGAGTCACCTAGTGCAG”, the binding signal is 8810 fluorescence intensity (a.u.). “TCTGATTATTTTCGTTCTTTTTTTTTTCGCATCCGCTTTTCGGAGTCACCTAGTGCAG”: the binding signal was 9840 fluorescence intensity (a.u.). For “GAGGAGGTGGTGGTGGAGGAGGACGAGGAGGTGGTTGTCGCGGAGTCACCTAGTGCAG” the value was 8490 fluorescence intensity (a.u.); for “CCTTTCCACTGAGAATTGCCCAGGGAAGAGATATCTGTAACGGAGTCACCTAGTGCAG”, 8330 fluorescence intensity (a.u.). Regarding “AATTTTCGGGTGAAATAGTATCATTTTGGGGTTTAAAATTCGGAGTCACCTAGTGCAG”, the binding signal is 8370 fluorescence intensity (a.u.). Regarding “ATCTTGTTTGGAGTTAATTTGGAGTACTATATTTTTTTTTCGGAGTCACCTAGTGCAG”, the binding signal is 8230 fluorescence intensity (a.u.). Regarding “ATCTCCAAAATCAGTTTAACATCGCCTAATCCACGTCGGTCGGAGTCACCTAGTGCAG”, the binding signal is 8820 fluorescence intensity (a.u.). On to “TTTTTGACTTTACCAAAAATGATCAGTTGCTTTTTTTTTTCGGAGTCACCTAGTGCAG”, for which the binding signal is 9200 fluorescence intensity (a.u.). Regarding “GTCGCTTCACCACAAGCACCATCGTTATCTATTGCCGTATCGGAGTCACCTAGTGCAG”, the binding signal was 11800 fluorescence intensity (a.u.). With “TAGGGTTTTTTTCATCGAAGTTTATTTTTCAGTCTTTGACCGGAGTCACCTAGTGCAG”, the binding signal is 10100 fluorescence intensity (a.u.). Consider “ATTAATCTAATCTCCTCGTCGATGTGATCTTACGGCCAATCGGAGTCACCTAGTGCAG”, for which the binding signal is 9180 fluorescence intensity (a.u.).

On to “ATGATGGCTTGGCGGTATAGTTTCAGTAATCTGAAAATCACGGAGTCACCTAGTGCAG”, for which the binding signal was 8260 fluorescence intensity (a.u.). As to “GTTTTTTTGTCCTGTGGTTCTTGCAATTGCAGGCCTGATGCGGAGTCACCTAGTGCAG”, the binding signal was 8540 fluorescence intensity (a.u.).

In the case of “TTTCTGTGTCCAACGTTTGACCGTCCGTCTTATTTGAATTCGGAGTCACCTAGTGCAG”, the binding signal was 9790 fluorescence intensity (a.u.).

For the sequence “TTTTTTTCACTCCATAATAATAGGTTGCATTTGTCTTTTTCGGAGTCACCTAGTGCAG”, the binding signal is 10700 fluorescence intensity (a.u.).

Source of the values: paper PMC7819943, “Rice protein-binding microarrays: a tool to detect cis-acting elements near promoter regions in rice”.
